# Test results as given in PubChem BioAssay AID587 (National Center for Advancing Translational Sciences (NCATS), 2007).
# About 35 (0.06%) of roughly 59,000 compounds were called active. Inconclusive results, whose numbers are uncertain, are shown with a selection of clear calls. No stated cut-off is given here; in the data, active means max dye-equivalent concentration above about 10 nM; inconclusive means between about 1.1 nM and that limit; inactive means weaker than that.
# Test: qHTS Assay for Spectroscopic Profiling in Texas Red Spectral Region
# Conditions: Compound fluorescence, Texas Red channel, 547/618 nm; active compounds read high
# Procedure, shortened: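 qHTS profiling of intrinsic compound fluorescence; 100 mM Tris pH 8.0; 15 min RT; ex 547 / em 618 nm; response expressed as Texas Red dye-equivalent concentration from six-point plate standard.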
row,SMILES,max dye-equivalent concentration
1,O=c1cnc2cnc(Nc3ccccc3)nc2n1Cc1cccs1,inconclusive: 1.1 nM
2,CN1CCN(c2ncc3nc(-c4ccc(Cl)cc4)c(=O)n(Cc4cccs4)c3n2)CC1,inactive
3,COc1cc(/C=c2\s/c(=C(/C#N)C(=O)N3CCCC3)n(-c3ccccc3)c2=O)ccc1O,inactive
4,CCc1nnc(NC(=O)CSc2nnc(-c3ccco3)n2C)s1,inconclusive: 2.3 nM
5,Cc1cccc2cc(C(c3nnnn3C(C)(C)C)N3CCN(C(=O)c4ccco4)CC3)c(=O)[nH]c12 (stereo unspecified),inconclusive: 1.6 nM
6,N#Cc1nc(Cc2cccc3ccccc23)oc1NCc1ccc(F)cc1,inconclusive: 1.6 nM
7,O=C(CSc1nnc2n(C3CCCCC3)c(=O)c3ccccc3n12)OC1CCCCC1,inconclusive: 1.1 nM
8,CN(C)C(=O)c1ccc(-c2nccc(NCc3cccnc3)n2)cc1,inactive
9,O=C(NCCCN1CCCCC1)c1ccc2c(=O)n(CCc3ccccc3)c(=O)[nH]c2c1,inconclusive: 1.6 nM
10,Cc1ccc(-c2nc(COC(=O)c3c(C)noc3C)cs2)cc1,inconclusive: 1.6 nM
11,CCCc1cc(=O)n2[nH]c(C)c(-c3ccccc3)c2n1,inconclusive: 1.3 nM
12,N=C(N)SCCN1CCCCC1,inactive
13,C/C(=N/NC1=NCCN1)c1cn(C2=NCCN2)nc1C,inconclusive: 1.3 nM
14,O=C1C(Cl)=C(Nc2ccccc2O)C(=O)N1c1ccccc1,inconclusive: 1.6 nM
15,COC(=O)N1CN(C(=O)OC)CN(C(=O)OC)C1,inconclusive: 1.3 nM
16,O=C(NCCCNCc1ccccc1)c1ccccn1,inconclusive: 1.1 nM
17,N=c1oc2c3c4c(cc2cc1C(=O)Nc1ccccc1)CCCN4CCC3,inconclusive: 1.1 nM
18,O=C(NCCC(=O)N1CCN(c2ncccn2)CC1)c1ccccc1,inconclusive: 1.4 nM
19,O=C(NCc1ccccc1F)C1CCCN(C(=O)NC2CCCCC2)C1 (stereo unspecified),inconclusive: 1.3 nM

row,SMILES,max dye-equivalent concentration
1,O=C(CSc1nnc2ccccn12)Nc1ccccc1C(=O)NC1CC1,inconclusive: 1.5 nM
2,O=C(Nc1nnc(CCc2ccccc2)s1)c1cccs1,inconclusive: 1.1 nM
3,CCn1cc(/C=C(/C#N)S(=O)(=O)c2ccccc2)cn1,inconclusive: 1.4 nM
4,O=c1[nH]c2cc3c(cc2cc1C(c1nnnn1C1CCCC1)N1CCCc2ccccc21)OCCO3 (stereo unspecified),inconclusive: 1.5 nM
5,NC(N)=Nc1nc(CSCC/C(N)=N/S(N)(=O)=O)cs1,inconclusive: 1.3 nM
6,O/N=C1\CC2(Cc3nonc31)OCCO2,inconclusive: 1.1 nM
7,CCN(CCCNC(=O)CCNC(=O)Cn1cnc2ccccc2c1=O)c1cccc(C)c1,inconclusive: 2.6 nM
8,CN(Cc1ccco1)c1ncnc2ccc(-c3ccccc3C#N)cc12,inconclusive: 1.3 nM
9,CCOc1cc(C2C(C#N)=C(N)OC(C)=C2C(C)=O)cc(Br)c1O (stereo unspecified),inactive
10,CCCc1cc(=O)[nH]c(SCC)n1,inconclusive: 2.2 nM
11,Cc1nn(-c2ccccn2)c2nc(-c3cccs3)cc(C(=O)N3CCOCC3)c12,inconclusive: 1.4 nM
12,Cc1ccc(S(=O)(=O)N(C)CCCC(=O)NCc2ccc3c(c2)OCO3)cc1,inconclusive: 1.2 nM
13,COC(=O)c1ccc(C2CC(=O)Nc3cc(OC)c(OC)c(OC)c32)cc1 (stereo unspecified),inconclusive: 1.1 nM
14,CCOC(=O)c1cccc(NC(=O)CSc2nnc(C3CCCCC3)n2CC)c1,inconclusive: 1.6 nM
15,Cc1noc(C)c1COc1cccc(C(=O)OCC(=O)N2CC(=O)Nc3ccccc32)c1,inconclusive: 2.6 nM
16,CCOC(=O)C1CCCN(C(=O)c2cc3c(-c4cccc(OC)c4)nn(C)c3s2)C1 (stereo unspecified),inconclusive: 1.2 nM
17,CCCCS(=O)(=O)Nc1ccc2c(c1)ncn2C1CCCCC1,inconclusive: 1.4 nM
18,COC(=O)CSc1nc2ccc(NC(C)=O)cc2s1,inconclusive: 1.3 nM
19,Cc1ccc(S(=O)(=O)NC2=NCN(Cc3ccccc3)CN2)cc1,inconclusive: 1.2 nM

# In the list so far, three contain a furan ring, fused or not:
row,SMILES,max dye-equivalent concentration
4,CCc1nnc(NC(=O)CSc2nnc(-c3ccco3)n2C)s1,inconclusive: 2.3 nM
5,Cc1cccc2cc(C(c3nnnn3C(C)(C)C)N3CCN(C(=O)c4ccco4)CC3)c(=O)[nH]c12 (stereo unspecified),inconclusive: 1.6 nM
8,CN(Cc1ccco1)c1ncnc2ccc(-c3ccccc3C#N)cc12,inconclusive: 1.3 nM

# Additional records follow.

row,SMILES,max dye-equivalent concentration
1,CCC1CCc2c(sc(NC(=O)c3ccoc3C)c2C(N)=O)C1 (stereo unspecified),inconclusive: 1.3 nM
2,COc1ccc(OC)c(C(=O)CSc2nnc(-c3cccs3)n2C)c1,inconclusive: 1.1 nM
3,CC1CCCCN1S(=O)(=O)c1ccc(NC(=O)c2cccc(-n3cnnn3)c2)cc1 (stereo unspecified),inconclusive: 1.3 nM
4,Cc1nc2ccccc2c2oc(C(=O)NCC3CCCO3)cc12 (stereo unspecified),inconclusive: 1.6 nM
5,Cc1ccccc1C1=NC(c2ccc(F)cc2F)ON1 (stereo unspecified),inconclusive: 2.4 nM
6,CCOC(=O)C1CCCN(C(=O)C(C)Oc2ccc(Cl)cc2Cl)C1 (stereo unspecified),inconclusive: 1.1 nM
7,CCCn1nnnc1SCC(=O)NCc1ccccc1,inconclusive: 1.4 nM
8,CCOC(=O)Cn1ncc2c(=O)oc3ccccc3c21,inconclusive: 1.1 nM
9,CCc1nnc(NC(=O)C2CCCN2S(=O)(=O)c2ccc(F)cc2)s1 (stereo unspecified),inconclusive: 1.1 nM
10,N#Cc1c(-c2ccco2)nc(SCc2ccc(F)cc2)[nH]c1=O,inconclusive: 1.2 nM
11,CCn1c(=O)cc(SCC(=O)NCCN2CCN(Cc3ccccc3)CC2)c2ccccc21,inconclusive: 1.1 nM
12,CNC(=O)C1CC(=O)N(Cc2ccc3c(c2)OCO3)C(=Nc2ccc(OC)cc2)S1 (stereo unspecified),inconclusive: 1.7 nM
13,CCS(=O)(=O)NCCCCc1ccccc1,inconclusive: 1.1 nM
14,COc1ccc(OC)c(S(=O)(=O)N(C)CC(=O)O)c1,inconclusive: 1.2 nM
15,CCOC(=O)C(NC(C)=O)(Nc1cccc(F)c1)C(F)(F)F (stereo unspecified),inconclusive: 2 nM
16,CN(C)c1ccc(N/C=C/C(=O)c2ccc(F)cc2)cc1,inactive
17,COc1cc(-c2ccc(=O)[nH]n2)ccc1OC(F)F,inconclusive: 2.1 nM
18,CCCCN1c2ccccc2N(CCCO)c2cc(C)nnc21,inconclusive: 1.1 nM
